Test results as given in PubChem BioAssay AID504834 (National Center for Advancing Translational Sciences (NCATS), 2011).
Hit rate of the full screen: of about 320,000 compounds, about 22,000 (6.9%) were called active. Inconclusive results, whose numbers are uncertain, are shown with a selection of clear calls. Calls follow the shape of the dose curve; as a rule, active = well fitted inhibition curve with a large enough effect; inconclusive = small, poorly fitted or top-dose-only effect, or another doubt; inactive = no such curve, though single readings can be large or run the other way. Where the call is inconclusive, the potency comes from a doubtful curve fit.

assay: Primary qHTS for delayed death inhibitors of the malarial parasite plastid, 96 hour incubation; conditions: P. falciparum luciferase reporter growth; series mostly up to 28.7 µM; activity change, negative = inhibition: at the top concentration
Outline: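 Cell-based qHTS: luciferase-tagged P. falciparum in erythrocytes (2% hematocrit, 0.05% parasitemia final) incubated with compounds for 96 hours, 37 C, 5% CO2; luciferase detection reagent then added and luminescence measured.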
% is scaled to controls: 0 for no effect and ±100 for the full control effect; potency is read from the fitted curve at half-maximal effect.

SMILES | Potency | activity change, negative = inhibition
C#CCOCCOCCOCCNc1nc(N2CCN(C(=O)CCCCCCCCCCNC(=O)Cn3cc(CCCCCN)nn3)CC2)nc(N2CCN(C(=O)CCCCCCCCCCNC(=O)[C@@H](CCSC)n3cc(CCO)nn3)CC2)n1 | active: 1.04 µM | –
CCc1cccc(CN2CCC(CNC(=O)Nc3ccc(Cl)cc3)CC2)c1 | inconclusive: 0.928 µM [inhibitor, partial curve, poor fit] | –
COc1ccc(O)c(-c2cc(-c3cccs3)[nH]n2)c1 | inconclusive: 2.62 µM [inhibitor, full curve, poor fit] | –
CCOC(=O)CSc1nc2c(c(=O)[nH]c(=O)n2C)n1Cc1ccccc1 | inconclusive: 18.5 µM [inhibitor, single point] | –
COCCN(C(=O)Cc1cccs1)C(C(=O)NC1CCCC1)c1ccc(OC)c(OC)c1 (stereo not drawn) | – | inactive: 18.9%
CCOc1ccc(N2Cc3ccccc3C2)cc1 | active: 7.38 µM | –
CCC(C(=O)OC)n1cnc2c(nnn2-c2ccc(F)cc2)c1=O (stereo not drawn) | – | inactive: 55%
OCCCNc1nc(-c2ccccc2)nc2c1oc1ccccc12 | inconclusive: 9.28 µM [inhibitor, single point] | –
O=C(c1cc2cc(Cl)ccc2[nH]1)N1CCN(c2ccc(F)cc2)CC1 | inconclusive: 1.31 µM [inhibitor, partial curve, poor fit] | –
COc1ccc(NC(=O)c2ccco2)c2ccccc12 | – | inactive: 0%
COc1cccc(OC)c1C1=NCC(=O)Nc2c1oc1ccc(Br)cc21 | active: 1.85 µM | –
Fc1ccc(CNC2CN3CCC2CC3)cc1 (stereo not drawn) | inconclusive: 16.5 µM [inhibitor, single point] | –
CCCS(=O)(=O)N1CCCC(C(=O)NCCN(CC)c2ccccc2)C1 (stereo not drawn) | active: 13.1 µM | –
CNC(=O)Cn1nc(-c2ccc(C)cc2)c2ccccc2c1=O | – | inactive: 0%
COc1cc(C)c(Br)cc1S(=O)(=O)NCc1ccncc1 | – | inactive: -50.2% [at 5.75 µM]
CC1Cc2ccccc2N1Cc1nc2cc(C(F)(F)F)ccc2c(=O)[nH]1 (stereo not drawn) | inconclusive: 0.0657 µM [inhibitor, full curve, poor fit] | –
CCN(CC)S(=O)(=O)c1ccc(N2CCCC2)c(NS(=O)(=O)c2cccs2)c1 | inconclusive: 18.5 µM [inhibitor, single point] | –
COc1ccccc1C(=O)NCCC(=O)N(Cc1ccco1)Cc1cccs1 | inconclusive: 10.4 µM [inhibitor, single point] | –
CCCCNC(=O)c1ccccc1NC(=O)C1=C(C)OCCS1 | inconclusive: 0.928 µM [inhibitor, full curve] | –
O=C(CCc1nnc2ccc(NCc3ccco3)nn12)Nc1cccc(F)c1 | inconclusive: 18.5 µM [inhibitor, single point] | –
COc1cc2c(cc1OC)CN(c1ccc(-c3ccccc3OC)nn1)CC2 | – | inactive: 5.89% [at 5.75 µM]
Cc1cc(C)c2nc(SCCC#N)nc(C)c2c1 | inconclusive: 11.7 µM [inhibitor, single point] | –
O=C(NCC(c1ccco1)N1CCc2ccccc21)c1ccccc1 (stereo not drawn) | inconclusive: 18.5 µM [inhibitor, single point] | –
Cc1cccc(NC(=O)CSCc2cc(=O)n3nc(C4CC4)sc3n2)c1 | inconclusive: 10.4 µM [inhibitor, partial curve] | –

SMILES | Potency | activity change, negative = inhibition
COc1ccccc1C(=O)C1CCCN(C(=O)C2CCCC2)C1 (stereo not drawn) | inconclusive: 10.4 µM [inhibitor, single point] | –
Cc1nc2c(C#N)cnn2c2c1CCN(Cc1ccccc1)N2C | inconclusive: 5.86 µM [inhibitor, partial curve, poor fit] | –
CCOC(=O)c1sc(NC(=S)NC(=O)c2ccccc2)nc1C | – | inactive: 24%
COc1cccc(C2CC(c3ccccc3OC)n3nc(N)nc3N2)c1 (stereo not drawn) | inconclusive: 14.7 µM [inhibitor, single point] | –
CCC(C)NC(=O)C(Sc1ccccc1)c1ccccc1 (stereo not drawn) | inconclusive: 13.1 µM [inhibitor, partial curve, poor fit] | –
COCCNC(=O)/C=C/c1c(Cl)cccc1Cl | inconclusive: 0.37 µM [inhibitor, full curve, poor fit] | –
Cc1cc(Nc2ccc(Cl)cc2)nc(NCc2ccccc2)n1 | active: 0.522 µM | –
CCN(c1ccc(OC)cc1)S(=O)(=O)c1nnc(NC(=O)COc2ccccc2)s1 | inconclusive: 0.522 µM [inhibitor, full curve] | –
CC#CCCCC(=O)Nc1cccc(C(=O)O)c1 | active: 10.4 µM | –
COc1ccccc1C(=O)N1CCN=C1SCc1cccnc1 | inconclusive: 5.86 µM [inhibitor, single point] | –
CC1CCCCN1C(=O)c1ccc(C(=O)N2CCCCC2C)cc1 (stereo not drawn) | inconclusive: 10.4 µM [inhibitor, single point] | –
N#Cc1c(Nc2ccccc2)c(C=NCCN2CCOCC2)c[nH]c1=O | active: 9.28 µM | –
CCC(C)c1ccc(NC(=O)c2cccs2)cc1 (stereo not drawn) | inconclusive: 7.38 µM [inhibitor, single point] | –
Cc1ccc(CO/N=C\Cc2snc(Sc3ncc(C(F)(F)F)cc3Cl)c2C#N)cc1 | inconclusive: 13.1 µM [inhibitor, single point] | –
CCC(C)(C)n1nnnc1C(c1ccccn1)N1CCOCC1 (stereo not drawn) | – | inactive: -23.5%
Cc1cccc(NC2=C(Cl)C(=O)OC2OC(=O)c2ccco2)c1 (stereo not drawn) | inconclusive: 1.17 µM [inhibitor, full curve] | –
Cc1ccc2c(c1)nnn2C1CCN(CC(=O)Nc2ccc(F)cc2)CC1 | inconclusive: 20.8 µM [inhibitor, partial curve, poor fit] | –
O=C(Nc1ccc(F)cc1)N1CCN(c2ncccn2)CC1 | – | inactive: -9.5%
COC(=O)c1ccc(Oc2cc(C)nc(NCc3ccccc3)n2)cc1 | active: 10.4 µM | –
O=C(CC1C(=O)N(c2ccc(Cl)cc2)C(=S)N1CCc1ccncc1)Nc1ccc(F)cc1 (stereo not drawn) | inconclusive: 1.04 µM [inhibitor, full curve] | –
CC(CN1CCCC1)OC(=O)C(c1ccccc1)c1ccccc1 (stereo not drawn) | inconclusive: 18.5 µM [inhibitor, single point] | –
COc1ccc(OCC(=O)N2CCCC2=O)c([N+](=O)[O-])c1 | inconclusive: 18.5 µM [inhibitor, single point] | –
Cc1ccc(-n2nc3c(=O)n(CC(=O)NCCC4=CCCCC4)nc(C)c3c2C)cc1 | – | inactive: -17.6%
CCOC(=O)c1c(C)oc2c1C(=O)c1ccccc1C2=O | – | inactive: -3.45%
O=C(CSCc1cnn(-c2ccccc2)c1-n1cccc1)NCc1ccccn1 | inconclusive: 2.62 µM [inhibitor, single point] | –

Random excerpt: 4 entries already listed, in no set order.
SMILES | Potency | activity change, negative = inhibition
COc1cccc(C2CC(c3ccccc3OC)n3nc(N)nc3N2)c1 (stereo not drawn) | inconclusive: 14.7 µM [inhibitor, single point] | –
CC1CCCCN1C(=O)c1ccc(C(=O)N2CCCCC2C)cc1 (stereo not drawn) | inconclusive: 10.4 µM [inhibitor, single point] | –
Cc1ccc(-n2nc3c(=O)n(CC(=O)NCCC4=CCCCC4)nc(C)c3c2C)cc1 | – | inactive: -17.6%
COC(=O)c1ccc(Oc2cc(C)nc(NCc3ccccc3)n2)cc1 | active: 10.4 µM | –

Additional results

SMILES | Potency | activity change, negative = inhibition
CN(CC(=O)Nc1cccc(F)c1)C(=O)c1ccc(N2CCCCC2)c([N+](=O)[O-])c1 | – | inactive: 10.8%
Cc1ccc2nc(NS(=O)(=O)c3cn(C)nc3C)sc2c1 | – | inactive: 34.9%
C=CCN(c1nc(C)c(Br)c(OC)n1)S(=O)(=O)c1ccc(C)cc1 | inconclusive: 14.7 µM [inhibitor, partial curve, poor fit] | –
CCC1CCc2c(sc(NC(=O)C3c4ccccc4Oc4ccccc43)c2C(N)=O)C1 (stereo not drawn) | – | inactive: 47.6%
COc1ccc(C(=O)Nc2cccc(C)c2)cc1 | – | inactive: 176%
Cc1nc2ccccn2c1C(=O)NC1CCCc2ccccc21 (stereo not drawn) | inconclusive: 11.7 µM [inhibitor, single point] | –
Cc1ccc(-n2cccc2/C=C2\C(=N)N3N=C(c4ccco4)SC3=NC2=O)cc1 | inconclusive: 7.38 µM [inhibitor, partial curve] | –
COc1ccc(OC)c(C2C(C(C)=O)=C(O)C(=O)N2CCC(=O)O)c1 (stereo not drawn) | inconclusive: 7.38 µM [inhibitor, partial curve, poor fit] | –
CS(=O)(=O)c1ccc2nc(NC(=O)Nc3ccc(Cl)c(Cl)c3)sc2c1 | – | inactive: 47.2%
COc1ccc(-c2nc(CS(=O)CC(=O)NCc3ccc(Cl)cc3)c(C)o2)cc1 (stereo not drawn) | inconclusive: 16.5 µM [inhibitor, single point] | –
CCC1C/C(=C\c2cccnc2)C(=O)/C(=C/c2cccnc2)C1 (stereo not drawn) | – | inactive: 21%
CC(=O)c1cccc(NC(=O)N(c2ccccc2)c2ccccc2)c1 | inconclusive: 11.7 µM [inhibitor, single point] | –
CCN1CCN(C(=O)C2=CC(c3ccc(OC)cc3)=NS(=O)(=O)N2C)CC1 | inconclusive: 11.7 µM [inhibitor, partial curve] | –
CCOc1ccc(OCCN2CCCCC2)cc1 | inconclusive: 0.465 µM [inhibitor, partial curve, poor fit] | –
CCN(CC(=O)Nc1ccccc1OC)CC(=O)Nc1sccc1C#N | inconclusive: 1.65 µM [inhibitor, full curve, poor fit] | –
COc1ccc(CC(=O)NNC(=O)c2ccoc2C)cc1OC | – | inactive: 53.5%
COc1cc(C(=O)c2nccc3cc(OC)c(OC)cc23)c([N+](=O)[O-])cc1OC | inconclusive: 11.7 µM [inhibitor, single point] | –
O=C(Nc1ccncc1)c1cn(-c2ccccc2)nc1-c1cccs1 | active: 2.94 µM | –
CC1CCN(C(=O)c2nc[nH]c2C(=O)N2CCC(C)CC2)CC1 | – | inactive: 35.7%
CC(=O)c1cnc(-c2ccccc2Cl)s1 | – | inactive: 82%
O=C(O)c1ccc(-c2nnc(-c3ccccc3)o2)cc1 | – | inactive: -19.3%
COc1cccc(N2CCN(C(=O)CCS(=O)(=O)c3ccc4c(c3)oc(=O)n4C)CC2)c1 | active: 5.22 µM | –
Cc1cc(C)c(S(=O)(=O)Nc2ccc(O)c(Sc3ncn[nH]3)c2)c(C)c1 | inconclusive: 0.37 µM [inhibitor, full curve] | –
